These are yes or no findings as the source states them, for the method shown. In cells and extracts the contact can be indirect. Here binding means that the protein was enriched with, or labelled near, the bait; the list need not be complete.
Target: N-terminally Flag- and HA-tagged cyclin E1 (cyclin E1^Ntag knock-in allele) (mouse) (UniProt Q61457)
Test: affinity purification with mass spectrometry; sequential anti-Flag and anti-HA purification from spleens and thymuses of cyclin E1 Ntag/Ntag and Cdk2-/-/cyclin E1 Ntag/Ntag mice, iTRAQ labelling and quantitative LC-MS

Chains of the proteins cited; added tags and fusions are not shown.
UniProt Q61457: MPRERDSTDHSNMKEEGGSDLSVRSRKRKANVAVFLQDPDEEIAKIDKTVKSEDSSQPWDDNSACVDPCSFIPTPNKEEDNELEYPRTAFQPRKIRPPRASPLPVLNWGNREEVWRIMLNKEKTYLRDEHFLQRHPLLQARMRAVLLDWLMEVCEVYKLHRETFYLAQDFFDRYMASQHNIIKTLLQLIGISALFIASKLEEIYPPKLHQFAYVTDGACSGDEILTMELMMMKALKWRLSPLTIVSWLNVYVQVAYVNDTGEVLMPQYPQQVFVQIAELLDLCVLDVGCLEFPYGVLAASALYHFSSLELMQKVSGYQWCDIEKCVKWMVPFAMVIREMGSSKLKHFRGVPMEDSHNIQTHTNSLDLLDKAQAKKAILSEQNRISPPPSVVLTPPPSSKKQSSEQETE

binding: binds
B1: Cdk4, mouse (enzyme, UniProt P30285 1-303)
chain: MAATRYEPVAEIGVGAYGTVYKARDPHSGHFVALKSVRVPNGGAAGGGLPVSTVREVALLRRLEAFEHPNVVRLMDVCATSRTDRDIKVTLVFEHIDQDLRTYLDKAPPPGLPVETIKDLMRQFLSGLDFLHANCIVHRDLKPENILVTSNGTVKLADFGLARIYSYQMALTPVVVTLWYRAPEVLLQSTYATPVDMWSVGCIFAEMFRRKPLFCGNSEADQLGKIFDLIGLPPEDDWPREVSLPRGAFAPRGPRPVQSVVPEMEESGAQLLLEMLTFNPHKRISAFRALQHSYLHKEESDAE

Reference: publication PMC5102403
